Data on two substances can be found in PMC12337293.

Results are given in words; binding and its absence hold for the method and conditions named. In cells and extracts the contact can be indirect. Binding can be weak; no strength is given.

This assay deals with T1, CLOCK (human (endogenous in U2OS)) (UniProt O15516).
T1 sequence: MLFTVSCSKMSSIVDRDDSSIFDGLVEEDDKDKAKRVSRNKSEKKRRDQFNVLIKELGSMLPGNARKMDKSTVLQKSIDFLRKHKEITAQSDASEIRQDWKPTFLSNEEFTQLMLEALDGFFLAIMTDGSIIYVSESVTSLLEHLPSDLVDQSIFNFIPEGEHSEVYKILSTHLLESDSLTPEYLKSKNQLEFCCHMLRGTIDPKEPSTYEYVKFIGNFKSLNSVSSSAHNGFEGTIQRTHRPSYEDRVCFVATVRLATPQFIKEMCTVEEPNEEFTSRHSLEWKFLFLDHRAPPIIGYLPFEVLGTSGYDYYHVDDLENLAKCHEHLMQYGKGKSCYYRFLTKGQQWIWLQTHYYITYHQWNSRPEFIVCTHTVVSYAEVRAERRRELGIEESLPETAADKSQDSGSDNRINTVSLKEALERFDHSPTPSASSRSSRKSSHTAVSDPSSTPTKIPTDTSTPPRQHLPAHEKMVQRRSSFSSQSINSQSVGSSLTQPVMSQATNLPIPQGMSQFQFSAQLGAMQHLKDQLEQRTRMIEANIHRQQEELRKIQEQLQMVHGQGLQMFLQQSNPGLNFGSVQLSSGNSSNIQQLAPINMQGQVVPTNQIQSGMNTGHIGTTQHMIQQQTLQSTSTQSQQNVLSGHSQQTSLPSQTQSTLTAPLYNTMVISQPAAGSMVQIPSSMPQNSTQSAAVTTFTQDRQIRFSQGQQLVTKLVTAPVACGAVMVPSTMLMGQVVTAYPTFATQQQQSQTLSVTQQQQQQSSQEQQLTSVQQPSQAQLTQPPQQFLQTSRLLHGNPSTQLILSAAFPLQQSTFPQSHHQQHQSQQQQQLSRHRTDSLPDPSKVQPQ
Nature of the assay: co-IP; 1 µg rabbit anti-CLK IgG and Protein A DynaBeads with 500 µg total protein of U2OS lysate, 4 h at 4 °C; lysis buffer 10 mM Tris-Cl pH7.5, 100 mM NaCl, 5 mM EDTA, 1% Triton X-100, 0.05% SDS; 6 washes (150 mM NaCl, 0.4% Triton X-100, 0.05% SDS); immunoblot with mouse anti-BMAL1. For orientation: In western blotting, separated proteins are transferred to a membrane and probed.

For “BMAL1 c.821-1G>C (human (endogenous in U2OS))”, the binding entry is listed as “binds”.
The result for “BMAL1 c.1524-3C>A (human (endogenous in U2OS))” reads “binds”.
